Measured values as given in paper doi:10.1101/2025.07.22.666130.
Construct, isoform or probe ends are uncertain for at least one entry. At least one verdict rests on a figure or table, not on a statement of the authors.

Test system: RPA heterotrimer (RPA70:RPA32:RPA14) (human)
Assay: pull-down
Settings: 6 uM each, indirect: ssDNA enhanced RPA retention on GST-RAD52-CTD

GAAGCATTTATCAGGGTTATTGTCTCATGAGCGGATACATATTTGAAT [no. 211 48-mer ssDNA]
binding result: binds
